The whole screen tested about 300,000 compounds, of which about 3,700 (1.2%) were called active. Inconclusive results, whose numbers are uncertain, are shown with a selection of clear calls. Calls follow the shape of the full dose curve; tested in HEK293 cells. A potency beside an inconclusive call is a rough fit, not a confirmed value.
test: qHTS for Inhibitors of binding or entry into cells for Lassa Virus; conditions: Lassa virus pseudotype entry inhibition, cell reporter; activity change, negative = inhibition: at 37.9 µM (top of the series) unless noted; also: nearly all actives have a fitted effect of over 50% in size
% is scaled to controls: 0 for no effect and ±100 for the full control effect; potency is read from the fitted curve at half-maximal effect.

Q: With `Brc1cccc(Cn2c(-c3cncs3)nc3ccccc32)c1` as the compound, how does the “activity change, negative = inhibition” value read?
A: inactive: 14.1%

Q: Which “activity change, negative = inhibition” value does the source give for `CCCc1cc(C(=O)N/N=C/c2ccc(CC)s2)c2ccccc2n1` here?
A: inactive: -8.63%

Q: With `CCCc1nc(NCCO)c(C#N)c2c1CCCC2` as the compound, how does the “activity change, negative = inhibition” value read?
A: inactive: 0.178%

Q: Which Potency does the source give for `CCn1nnc2cc(C(=O)NCCc3ccccc3F)ccc21` here?
A: active: 1.12 µM

Q: Which Potency does the source give for `COc1ccc(NC(=O)c2ccc(-n3c(C)ccc3C)cc2)c(OC)c1` here?
A: inconclusive: 11.2 µM [inhibitor, partial curve, poor fit]

Q: Which “activity change, negative = inhibition” value does the source give for `NC1(C(=O)O)CCc2cc(C(=O)O)ccc21` (configuration not stated) here?
A: inactive: -13.5%

Q: Which “activity change, negative = inhibition” value does the source give for `CC(=O)N1CCc2cc(S(=O)(=O)NC(C(=O)Nc3ccc(C)cc3C)C(C)C)ccc21` (configuration not stated) here?
A: inactive: -12.9% [at 46.1 µM]

Q: With `CC1OC(CC(=O)O)CC2=C1C(=O)c1c(O)cccc1C2=O` (configuration not stated) as the compound, how does the Potency read?
A: active: 0.562 µM

Q: Which “activity change, negative = inhibition” value does the source give for `O=C(c1ccc2oc(Cc3ccc(Cl)cc3)nc2c1)N1CCCCC1CCO` (configuration not stated) here?
A: inactive: 0.737%

Q: With `CCOC(=O)CSc1nc2c([nH]c3ccccc32)c(=O)n1C` as the compound, how does the Potency read?
A: inconclusive: 0.082 µM [activator, full curve]

Q: Which Potency does the source give for `NC(CO)C(=O)NNCc1ccc(O)c(O)c1O` (configuration not stated) here?
A: inconclusive: 7.3 µM [inhibitor, partial curve, poor fit]

Q: Which Potency does the source give for `CCN(CC)c1ccc(N=Cc2c(O)n(CCc3ccc(OC)c(OC)c3)c(=O)[nH]c2=O)cc1` here?
A: inconclusive: 35.5 µM [inhibitor, single point]

Q: Which Potency does the source give for `CN(C)S(=O)(=O)N(CC(=O)Nc1cccc(F)c1)c1ccccc1` here?
A: inconclusive: 14.6 µM [inhibitor, single point]

Q: For `CCOc1ccc2nc(NCCNC(=O)C3CC3)c(C)cc2c1`, which Potency is on record?
A: inconclusive: 0.73 µM [inhibitor, partial curve, poor fit]

Q: With `O=[N+]([O-])c1ccc(OC/C=C2\Oc3ccc([N+](=O)[O-])cc3C2N2CCOCC2)cc1` (configuration not stated) as the compound, how does the Potency read?
A: inconclusive: 1.26 µM [inhibitor, partial curve, poor fit]

Q: With `CCC(=O)Nc1nc2ccccc2n1CCN(C)C` as the compound, how does the Potency read?
A: inconclusive: 0.316 µM [activator, full curve]

Q: For `COc1ccc(-n2c(=S)[nH]c3cc(C(=O)Nc4ccc(C)c(F)c4)ccc3c2=O)c(OC)c1`, which Potency is on record?
A: inconclusive: 35.5 µM [inhibitor, single point]

Q: With `COc1ccc(N2CCN(C(=O)c3ccc(NS(=O)(=O)c4cccs4)cc3)CC2)cc1` as the compound, how does the Potency read?
A: inconclusive: 35.5 µM [inhibitor, single point]

Q: Which Potency does the source give for `Oc1ccc(CNc2ccccc2F)c2cccnc12` here?
A: inconclusive: 13 µM [inhibitor, partial curve, poor fit]

Q: Which Potency does the source give for `Cc1ccc2nc(SCc3nc4c(cnn4-c4ccccc4)c(=O)[nH]3)[nH]c2c1` here?
A: inconclusive: 28.2 µM [inhibitor, single point]

Q: With `O=[N+]([O-])c1ccc(N2CCCCC2)s1` as the compound, how does the “activity change, negative = inhibition” value read?
A: inactive: 17.7% [at 46.1 µM]

Q: Which Potency does the source give for `COc1ccc(CCN2CCCC(CN(C)Cc3cccc(OC)c3)C2)cc1` (configuration not stated) here?
A: inconclusive: 8.91 µM [inhibitor, partial curve, poor fit]

Q: With `Cn1c(N)nc2ccccc2c1=O` as the compound, how does the “activity change, negative = inhibition” value read?
A: inactive: 5.4%

Q: Which Potency does the source give for `CSc1ccccc1NC(=O)COc1ccc(Cl)cc1` here?
A: inconclusive: 5.01 µM [inhibitor, single point]

Q: With `COc1cc(CNCCc2c[nH]c3ccccc23)cc(OC)c1` as the compound, how does the Potency read?
A: inconclusive: 3.55 µM [inhibitor, single point]

Q: With `Cc1ccc(Cn2cc(C=O)c(-c3ccc(C)cc3)n2)cc1` as the compound, how does the Potency read?
A: inconclusive: 35.5 µM [inhibitor, single point]

Q: For `CCOc1ccccc1NC(=S)NC(=O)C1CCCCC1`, which Potency is on record?
A: inconclusive: 35.5 µM [inhibitor, partial curve, poor fit]

Q: With `O=C(CSc1n[nH]c(-c2ccncc2)n1)Nc1ccccc1` as the compound, how does the “activity change, negative = inhibition” value read?
A: inactive: 13.1% [at 46.1 µM]

Q: Which “activity change, negative = inhibition” value does the source give for `COc1cc(-c2nnc(COC(=O)CSCC(=O)Nc3cc(C)on3)o2)cc(OC)c1OC` here?
A: inactive: 2.15%

Q: Which Potency does the source give for `CC(/C=N/NC(=O)c1cccs1)=C\c1ccco1` here?
A: inconclusive: 3.55 µM [activator, single point]

Q: For `Cc1onc(-c2ccccc2)c1-c1csc(N/N=C/c2ccccc2Cl)n1`, which Potency is on record?
A: inconclusive: 35.5 µM [activator, single point]

Q: Which “activity change, negative = inhibition” value does the source give for `CC1(C)Cc2c(sc(NC(=O)Cc3ccccc3)c2C#N)CO1` here?
A: inactive: -1%

Q: Which Potency does the source give for `CCOc1cc(C=O)c(Br)cc1OC1CCCC1` here?
A: inconclusive: 31.6 µM [inhibitor, partial curve, poor fit]

Q: With `CCN(CC)C(=O)c1ccc(Nc2nnc(-c3ccc(C)c(S(=O)(=O)NC)c3)c3ccccc23)cc1` as the compound, how does the Potency read?
A: inconclusive: 12.6 µM [inhibitor, partial curve, poor fit]

Q: With `O=C(O)C1CC=CCC1C(=O)N1CCN(c2nc(-c3ccccc3Cl)c3cc(Br)ccc3n2)CC1` (configuration not stated) as the compound, how does the “activity change, negative = inhibition” value read?
A: inactive: -8.16%

Q: Which Potency does the source give for `COc1ccc(-c2csc3ncnc(N4CCN(S(=O)(=O)c5cccs5)CC4)c23)cc1` here?
A: inconclusive: 35.5 µM [inhibitor, single point]

Q: With `O=C(NCc1cccc(Cl)c1)c1ccc2nc(N3CCCCC3)sc2c1` as the compound, how does the “activity change, negative = inhibition” value read?
A: inactive: -4.05% [at 46.1 µM]

Q: For `Cc1oc(-c2ccccc2Cl)nc1CSc1nc2ncccc2[nH]1`, which “activity change, negative = inhibition” value is on record?
A: inactive: 10.4% [at 46.1 µM]

Q: For `O=C(O)C1CCCN1S(=O)(=O)c1cc(Cl)ccc1Cl` (configuration not stated), which Potency is on record?
A: inconclusive: 16.4 µM [activator, partial curve]

Q: Which “activity change, negative = inhibition” value does the source give for `CCCCOc1ccccc1CC1C(=O)Nc2ccc(Br)cc21` (configuration not stated) here?
A: inactive: -11.6% [at 46.1 µM]

Q: Which Potency does the source give for `C(=N\Nc1ccc2ccccc2n1)/c1ccc2c(c1)OCO2` here?
A: active: 2.24 µM

Q: Which Potency does the source give for `COc1cc(NC(=O)C2CCCN(c3ncnc4c3nc3n4CCCCC3)C2)cc(OC)c1OC` (configuration not stated) here?
A: inconclusive: 15.8 µM [inhibitor, single point]

Q: Which Potency does the source give for `COc1ccc(-c2cc(C(F)(F)F)nc(S(=O)(=O)CCCC(=O)Nc3cccnc3Cl)n2)cc1OC` here?
A: inconclusive: 35.5 µM [inhibitor, single point]

Q: For `Cc1cccc(NC(=S)Nc2ccccn2)c1`, which “activity change, negative = inhibition” value is on record?
A: inactive: -25.3% [at 46.1 µM]

Q: With `O=C(N/N=C/c1ccc(OC(F)F)cc1)c1ccc(Br)cc1` as the compound, how does the Potency read?
A: inconclusive: 9.2 µM [inhibitor, partial curve]

Q: With `CC(C)c1ccc(NC(=O)CN2C(=O)COc3ccc(S(=O)(=O)N4CCCCCC4)cc32)cc1` as the compound, how does the Potency read?
A: inconclusive: 35.5 µM [inhibitor, single point]

Q: Which Potency does the source give for `O=[N+]([O-])c1cc(S(=O)(=O)C(F)(F)F)ccc1N1CCN(c2ccccc2)CC1` here?
A: inconclusive: 1.26 µM [inhibitor, single point]
